The list shows a part of the results. These are further read-outs of the screen, such as a control signal, another cell line or another target. No call is given for them. Compounds called inactive in the main read-out are mostly missing here. Words in brackets tell the shape of the fitted curve; partial curves, single points and poor fits give uncertain potencies.
Assay: qHTS Assay for Lipid Storage Modulators in Drosophila S3 Cells;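 for cell number change: cells counted by Cell Tracker Red CMTPX staining in the red channel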
Conditions: BODIPY lipid droplet fluorescence, 18-24 h; for cell number change: measured here: cell count max response, cells fed with added oleic acid
Summary of the method: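 Laser-scanning cytometry quantifies lipid droplet accumulation (500–530 nm total intensity; droplet/cell object ratio) in oleic acid-fed (400 uM added) Drosophila S3 cells treated with a concentration series. 20 uM Triacsin C defined 100% inhibition.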

[1] = measured here: lipid fluorescence (Fed channel) AC50, cells fed with added oleic acid
[2] = measured here: cell number channel AC50, cells fed with added oleic acid

Row | SMILES | cell number change | AC50 [1] | AC50 [2]
1 | COc1cc(CN2CCN(C(=O)CC(C)C)CC2)cc(OC)c1OC | -1.6% | 3.26 µM [falling, single point] | –
2 | CCn1cc(C(=O)NCc2ccco2)c(=O)c2cc(S(=O)(=O)N3CCCCCC3)ccc21 | 7.66% | – | 0.82 µM [falling, full curve, poor fit]
3 | O=C(O)c1cc(N/N=C/c2ccc3c(c2)OCCO3)ccc1Cl | -16.7% | – | –
4 | Nc1cc(Cl)ccc1N1C(=O)CCC1=O | -18.9% | 0.651 µM [rising, partial curve, poor fit] | –
5 | O=C(/C=C/c1cccc([N+](=O)[O-])c1)NCCN1C(=O)S/C(=C\c2cccnc2)C1=O | -30.1% | – | –
6 | COc1ccc2nc(SCC(=O)NCC3CCCO3)c(C#N)cc2c1 (configuration not stated) | 19.8% | – | –
7 | O=C(Nc1nnc(-c2ccco2)o1)c1ccc(Cl)cc1 | -10.6% | 0.291 µM [falling, partial curve, poor fit] | 0.0651 µM [falling, full curve, poor fit]
8 | CN1CCN(NC(=O)c2cn(-c3ccccc3)nc2-c2ccc(OC(F)F)cc2)CC1 | -16.5% | 0.92 µM [falling, full curve] | –
9 | O=C(N/N=C1/CCS(=O)(=O)c2ccc(F)cc21)c1ccccn1 | -24.6% | 6.51 µM [falling, partial curve, poor fit] | 6.51 µM [falling, single point]
10 | O=C(CSc1nc2ccccc2[nH]1)N1c2ccccc2Sc2ccccc21 | – | 9.2 µM [falling, partial curve] | –
11 | Cc1ccc(NCC(=O)N/N=C\c2ccc[nH]2)cc1 | 1.87% | 0.0058 µM [falling, full curve, poor fit] | –
12 | COc1ccc(C(CNC(=O)COc2ccccc2OC)N(C)C)cc1OC (configuration not stated) | 8.62% | – | –
13 | CC1CCN(Cc2nnnn2-c2cccc([N+](=O)[O-])c2)CC1 | 2.25% | 13 µM [falling, single point] | –
14 | NC(=O)COC(=O)CC12CC3CC(CC(C3)C1)C2 | -53.4% | – | 0.82 µM [falling, full curve, poor fit]
15 | CC(=O)N1CCSc2ccc(S(=O)(=O)NCCc3cccc(C)c3)cc21 | 2.55% | – | –
16 | Cc1cc(C)c2[nH]c(C(=O)N3CCC(n4nccc4NC(=O)C4CC4)CC3)c(C)c2c1 | 24.9% | – | –
17 | O=C(Nc1ccccc1C(=O)N1CCCC1)c1cccc(S(=O)(=O)N2CCCCCC2)c1 | 2.16% | 8.2 µM [rising, partial curve] | –
18 | Cc1[nH][nH]c(=O)c1C(c1ccccc1[N+](=O)[O-])C(C#N)C#N (configuration not stated) | -5.66% | 2.59 µM [falling, partial curve] | –
19 | Cc1cc(=O)oc2cc(OC(C)C(=O)NC3(C#N)CCCCC3)ccc12 (configuration not stated) | -38.7% | 20.6 µM [falling, single point] | 18.4 µM [falling, single point]
20 | COc1ccc(/C=N/Nc2ncnc3c2[nH]c2ccccc23)c(OC)c1OC | 70% | 3.26 µM [rising, full curve, poor fit] | 25.9 µM [rising, single point]
21 | COc1ccc(CCCC(=O)N/N=C/c2cccc(OC)c2O)cc1C | -2.81% | 0.103 µM [falling, full curve, poor fit] | –

Row | SMILES | cell number change | AC50 [1] | AC50 [2]
22 | O=[N+]([O-])c1cccc(-c2nnc(CNC3CC3)o2)c1 | – | 0.58 µM [rising, single point] | –
23 | COc1cccc(NC(=O)CS(=O)(=O)Cc2nc(-c3ccc(C)cc3)oc2C)c1 | 14.1% | – | –
24 | c1ccc(CN(Cc2cccs2)C(c2cccs2)c2nnnn2C2CCCC2)cc1 (configuration not stated) | 0.0804% | 6.51 µM [rising, single point] | –
25 | O=C(CCN1C(=O)c2cccc3cccc(c23)C1=O)NCC1CCCO1 (configuration not stated) | 6.27% | 2.06 µM [rising, partial curve, poor fit] | –
26 | CCOc1ccc(CC2CCC(=O)NC2=O)cc1 (configuration not stated) | -10.7% | 4.11 µM [falling, partial curve] | –
27 | Cc1ccc(N(CC(=O)Nc2ccc3c(c2)OCCO3)S(C)(=O)=O)cc1 | -4.88% | 0.0291 µM [falling, full curve, poor fit] | –
28 | CNC(=S)NNC(=O)c1ccccc1Br | -11.4% | – | –
29 | CCn1nc(NC(=O)c2cccnc2)c2cc3cccc(C)c3nc21 | -4.4% | 0.517 µM [rising, full curve, poor fit] | –
30 | O=C(N/N=C/c1cccc2ccccc12)c1cccc(F)c1 | – | 15.8 µM [falling, single point] | –
31 | Cc1cc(=O)oc(C)c1C(=O)Nc1ccc(F)cc1 | -20.1% | 0.058 µM [falling, full curve] | –
32 | COc1cccc2c1C(=O)CC2NC(=O)C(F)(F)F (configuration not stated) | -22.9% | 25.9 µM [falling, partial curve] | –
33 | CCCCNC(=S)Nc1ccc(Cl)cc1 | 6.42% | 36.6 µM [falling, partial curve, poor fit] | –
34 | N#CC1=C(N)S[C@@H](C(=O)c2ccc(F)cc2)[C@@H]1c1cccs1 | -24.8% | 29.1 µM [falling, single point] | –
35 | O=S(=O)(c1ccccc1)c1nc(-c2ccco2)oc1N1CCOCC1 | 26.3% | 4.11 µM [rising, full curve] | –
36 | NC(=O)C1CC(=O)N(Cc2ccc3c(c2)OCO3)C(=Nc2ccccc2)S1 (configuration not stated) | -16.5% | 2.59 µM [rising, partial curve, poor fit] | –
37 | CC(C)c1ccc(NC(=O)c2ccc3snnc3c2)cc1 | 25.9% | – | 2.59 µM [rising, full curve, poor fit]
38 | O=C(/C=C/c1ccccc1Cl)Nc1ccc(-c2nnc3n2CCCCC3)cc1 | -35.5% | 5.8 µM [rising, single point] | 32.6 µM [falling, single point]
39 | O=C(Nc1ccc2c(c1)C(=O)OC2)c1ccc(C(F)(F)F)cc1 | 9.01% | 29.1 µM [rising, single point] | –
40 | O=C(NC1CCS(=O)(=O)C1)c1ccc(S(=O)(=O)N2CCCC2)cc1 (configuration not stated) | -13.9% | 0.58 µM [rising, single point] | –
41 | COc1cc(CN(C(=O)c2cccs2)C2CCS(=O)(=O)C2)cc(OC)c1OC (configuration not stated) | 12.8% | 0.461 µM [falling, full curve] | –
42 | COc1cc(OC)c(C2=NOC(C(=O)Nc3c(C)nn(CC(=O)N4CCCC4)c3C)C2)cc1Cl (configuration not stated) | -1.55% | 1.16 µM [rising, single point] | –

One compound at a time, as listed above:
CCn1nc(NC(=O)c2cccnc2)c2cc3cccc(C)c3nc21 is listed as cell number change: -4.4%; AC50 [1]: 0.517 µM [rising, full curve, poor fit]
c1ccc(CN(Cc2cccs2)C(c2cccs2)c2nnnn2C2CCCC2)cc1 (configuration not stated) is listed as cell number change: 0.0804%; AC50 [1]: 6.51 µM [rising, single point]
CCCCNC(=S)Nc1ccc(Cl)cc1 is listed as cell number change: 6.42%; AC50 [1]: 36.6 µM [falling, partial curve, poor fit]

(next part)

Row | SMILES | cell number change | AC50 [1] | AC50 [2]
43 | COc1ccc(-c2c[n+]3c4n2CCCCC4=C(c2ccc(Br)cc2)C3)cc1 | -40.1% | 32.6 µM [falling, partial curve] | 32.6 µM [falling, single point]
44 | NC1=NC(=O)CC(C(=O)Nc2cccc3ccccc23)S1 (configuration not stated) | -9.49% | 2.06 µM [falling, partial curve, poor fit] | –
45 | CCC(CO)NCc1ccc(Br)cc1 (configuration not stated) | 123% | 29.1 µM [rising, single point] | 29.1 µM [rising, single point]
46 | Cc1cccc2c(C(=O)N3CCN(c4ccccn4)CC3)cc(-c3cccc(Br)c3)nc12 | 34.3% | 2.51 µM [rising, full curve] | 35.5 µM [rising, single point]
47 | Clc1ccccc1-c1nnc2sc(-c3cccs3)nn12 | -19.7% | 9.2 µM [rising, partial curve] | –
48 | Cc1cccc(C)c1NC(=O)CCCSc1nnc(-c2ccc(F)cc2)n1-c1ccccc1 | 15.7% | 29.1 µM [falling, single point] | –
49 | Cc1occc1C(=O)NNC(=O)Nc1ccc(F)cc1F | 25.8% | 18.4 µM [rising, partial curve] | –
50 | O=C(Nc1ccccc1)c1ccc(CSc2ccccn2)cc1 | 8.31% | 0.92 µM [falling, full curve, poor fit] | –
51 | Cn1nccc1C(=O)Nc1sc2c(c1C#N)CCCC2 | -16.2% | – | –
52 | O=C(c1cccc(N2C(=O)C3C4C=CC(C4)C3C2=O)c1)N1CCN(c2ccccc2)CC1 (configuration not stated) | 17.7% | 0.82 µM [rising, full curve, poor fit] | –
53 | O=C1c2ccccc2C(=O)N1CCCCSc1nc2ccccc2c(=O)n1CCCN1CCOCC1 | 24.1% | 6.51 µM [rising, single point] | 3.66 µM [rising, single point]
54 | CN(c1ccccc1)S(=O)(=O)c1ccc(C(=O)Nc2nccs2)cc1 | -22% | 25.9 µM [falling, single point] | –
55 | CC(C)c1ccccc1-n1c(-c2cccnc2)n[nH]c1=S | -14.8% | – | 0.651 µM [falling, single point]
56 | CCCc1cc2c(=O)c(-c3cscn3)c(C(=O)OCC)oc2cc1O | – | 16.4 µM [rising, partial curve] | –
57 | Cc1cc(C(=O)CN2C(=O)c3ccccc3S2(=O)=O)c(C)n1-c1ccccc1 | 15.4% | 1.84 µM [rising, partial curve] | –
58 | CCN(CC(=O)Nc1ccc(NC(C)=O)cc1)C(=O)c1cccc2ccccc12 | 21.8% | 9.2 µM [rising, partial curve, poor fit] | –
59 | COc1ccc(NC(=O)C2OC3OC(C)(C)OC3C3OC(C)(C)OC23)cc1 (configuration not stated) | -91.7% | 3.26 µM [rising, single point] | 29.1 µM [falling, single point]
60 | O=C(CCCSc1nc2ccccc2s1)Nc1nccs1 | 9.39% | – | –
61 | Cc1ccc(CNC(=O)CCCn2c(=O)c3ccccc3n(CC(=O)NC3CCCC3)c2=O)cc1 | – | – | 2.59 µM [rising, single point]
